{"source": "PubChem BioAssay AID2685", "about": "(National Center for Advancing Translational Sciences (NCATS), 2010)", "test": "qHTS Assay for Lipid Storage Modulators in Drosophila S3 Cells;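 on cell number change: cells counted by Cell Tracker Red CMTPX staining in the red channel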", "conditions": "BODIPY lipid droplet fluorescence, 18-24 h; for cell number change: measured here: cell count max response, cells fed with added oleic acid", "outline": "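Drosophila S3 cells got compounds at several concentrations plus oleic acid (400 uM solution). Laser-scanning cytometry with 488 nm excitation read lipid droplets at 500-530 nm and cells at 575-640 nm. Percent activity was relative to 20 uM Triacsin C.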", "key": {"[1]": {"conditions": "measured here: cell number channel AC50, cells fed with added oleic acid"}, "[2]": {"conditions": "measured here: lipid fluorescence (Fed channel) AC50, cells fed with added oleic acid"}}, "note": "This is one part of the list. The main result of the screen is listed elsewhere. These columns were measured beside it and carry no call. Most of these compounds were active or inconclusive in the main read-out, so they are no random draw. Words in brackets tell the shape of the fitted curve; partial curves, single points and poor fits give uncertain potencies."}
{"smiles": "CN(C)C(=O)NCc1ccc(S(N)(=O)=O)cc1", "values": [{"measurement": "cell number change", "result": -43.6, "unit": "%"}, {"measurement": "AC50", "setting": "[1]", "result": "3.66 µM [falling, full curve]"}, {"measurement": "AC50", "setting": "[2]", "result": "3.66 µM [falling, full curve]"}]}
{"smiles": "COc1ccc(OC)c(-c2csc(NC(=O)Cc3ccccc3F)n2)c1", "values": [{"measurement": "cell number change", "result": 43.8, "unit": "%"}, {"measurement": "AC50", "setting": "[1]", "result": "7.31 µM [rising, partial curve]"}, {"measurement": "AC50", "setting": "[2]", "result": "23.1 µM [falling, single point]"}]}
{"smiles": "COc1ccc2cc(CN(C(=O)Nc3ccccc3)C3CCCC3)c(=O)[nH]c2c1", "values": [{"measurement": "cell number change", "result": 11.9, "unit": "%"}, {"measurement": "AC50", "setting": "[2]", "result": "2.06 µM [rising, full curve]"}]}
{"smiles": "CCOc1ccc(CN2CCN(CC(O)Cn3c4ccccc4c4ccccc43)CC2)cc1", "note": "(stereo not drawn)", "values": [{"measurement": "cell number change", "result": -69.5, "unit": "%"}, {"measurement": "AC50", "setting": "[1]", "result": "25.9 µM [falling, partial curve, poor fit]"}, {"measurement": "AC50", "setting": "[2]", "result": "16.4 µM [falling, partial curve]"}]}
{"smiles": "C/C(=N\\N1CCN(Cc2ccc(Cl)cc2)CC1)c1ccc(F)cc1", "values": [{"measurement": "cell number change", "result": -29.1, "unit": "%"}, {"measurement": "AC50", "setting": "[2]", "result": "16.4 µM [falling, single point]"}]}
{"smiles": "CC(NC(=O)C(=O)NCCC1=CCCCC1)c1ccccc1", "note": "(stereo not drawn)", "values": [{"measurement": "cell number change", "result": -4.76, "unit": "%"}, {"measurement": "AC50", "setting": "[2]", "result": "1.84 µM [rising, partial curve]"}]}
{"smiles": "CC1=C(C(=O)OCc2ccccc2)C(c2ccc(Cl)cc2)NC(=O)N1CCCC(=O)O", "note": "(stereo not drawn)", "values": [{"measurement": "cell number change", "result": 14.2, "unit": "%"}]}
{"smiles": "Cc1cc(N(C)C)ccc1N=Nc1ccc2ncccc2c1", "values": [{"measurement": "cell number change", "result": -53.5, "unit": "%"}, {"measurement": "AC50", "setting": "[1]", "result": "13 µM [falling, partial curve]"}, {"measurement": "AC50", "setting": "[2]", "result": "2.91 µM [falling, full curve]"}]}
{"smiles": "COc1ccc(C)cc1NC(=O)CN1C(=O)COc2ccc(S(=O)(=O)N3CCCCCC3)cc21", "values": [{"measurement": "cell number change", "result": -21.8, "unit": "%"}, {"measurement": "AC50", "setting": "[2]", "result": "20.6 µM [rising, partial curve]"}]}
{"smiles": "Cc1ccc(C(=O)Nc2ccc3c(c2)OCO3)cc1S(=O)(=O)N1CCCCC1", "values": [{"measurement": "cell number change", "result": -23.5, "unit": "%"}, {"measurement": "AC50", "setting": "[2]", "result": "0.164 µM [rising, full curve, poor fit]"}]}
{"smiles": "C#CC(C)(CC)NC(=O)Cn1nnc(-c2ccc(S(C)(=O)=O)cc2)n1", "note": "(stereo not drawn)", "values": [{"measurement": "cell number change", "result": -33.7, "unit": "%"}, {"measurement": "AC50", "setting": "[1]", "result": "6.51 µM [falling, full curve]"}, {"measurement": "AC50", "setting": "[2]", "result": "9.2 µM [falling, partial curve, poor fit]"}]}
{"smiles": "CCC(=O)c1ccc(OC(=O)/C=C/c2cc(OC)c(OC)c(OC)c2)cc1", "values": [{"measurement": "cell number change", "result": 13.2, "unit": "%"}]}
{"smiles": "CN(CC(=O)Nc1cccc(F)c1)C(=O)c1ccc2c(=O)n3c(nc2c1)CCC3", "values": [{"measurement": "cell number change", "result": -2.59, "unit": "%"}, {"measurement": "AC50", "setting": "[2]", "result": "29.1 µM [falling, single point]"}]}
{"smiles": "O=C(CCn1cnc(-c2ccccc2)c1-c1ccccc1)N/N=C/c1ccccc1O", "values": [{"measurement": "cell number change", "result": -27.8, "unit": "%"}, {"measurement": "AC50", "setting": "[2]", "result": "29.1 µM [falling, single point]"}]}
{"smiles": "Cc1ccc2occ(C3N[C@H](C(=O)O)CS3)c(=O)c2c1", "note": "(stereo partly drawn)", "values": [{"measurement": "cell number change", "result": 29.8, "unit": "%"}, {"measurement": "AC50", "setting": "[1]", "result": "4.11 µM [rising, full curve, poor fit]"}, {"measurement": "AC50", "setting": "[2]", "result": "18.4 µM [rising, single point]"}]}
{"smiles": "O=C(NCC1CCCO1)c1ccc(COc2ccccc2)cc1", "note": "(stereo not drawn)", "values": [{"measurement": "cell number change", "result": -10.8, "unit": "%"}]}
{"smiles": "CCC(NC(=O)c1ccccc1NC(=O)c1ccccc1)C(=O)NNC(=O)c1cccnc1", "note": "(stereo not drawn)", "values": [{"measurement": "cell number change", "result": 38.8, "unit": "%"}, {"measurement": "AC50", "setting": "[1]", "result": "16.4 µM [rising, partial curve, poor fit]"}, {"measurement": "AC50", "setting": "[2]", "result": "4.11 µM [rising, partial curve, poor fit]"}]}
{"smiles": "CCC(CC)C1C(C#N)=C(N)Oc2cc(C)oc(=O)c21", "note": "(stereo not drawn)", "values": [{"measurement": "AC50", "setting": "[1]", "result": "5.8 µM [rising, single point]"}]}
{"smiles": "O=C(c1ccc(F)cc1)N1CCN2C(=O)c3ccccc3C12c1ccccc1", "note": "(stereo not drawn)", "values": [{"measurement": "cell number change", "result": 14.9, "unit": "%"}, {"measurement": "AC50", "setting": "[2]", "result": "29.1 µM [falling, single point]"}]}
{"smiles": "Cc1nnc(NC(=O)CSc2nnc(CC(=O)Nc3ccccc3Cl)n2C)s1", "values": [{"measurement": "cell number change", "result": 33.3, "unit": "%"}, {"measurement": "AC50", "setting": "[1]", "result": "0.00461 µM [rising, full curve, poor fit]"}]}
{"smiles": "COc1ccc(Cl)cc1NC(=O)Nc1ccc(C(=O)N2CCCC2)cc1", "values": [{"measurement": "cell number change", "result": -12.9, "unit": "%"}]}
{"smiles": "CCc1ccc(NC(=O)COc2cccc(-n3cnnn3)c2)cc1", "values": [{"measurement": "cell number change", "result": -5.26, "unit": "%"}]}
{"smiles": "CSc1ccc(CN(C)Cc2cc(=O)oc3c(C)c(C)ccc23)cc1", "values": [{"measurement": "cell number change", "result": -33.7, "unit": "%"}]}
{"smiles": "CC(Oc1ccc(S(=O)(=O)N2CCCC2)cc1[N+](=O)[O-])C(=O)NC1(C#N)CCCCC1", "note": "(stereo not drawn)", "values": [{"measurement": "cell number change", "result": 20.1, "unit": "%"}, {"measurement": "AC50", "setting": "[2]", "result": "2.59 µM [rising, full curve, poor fit]"}]}
{"smiles": "O=C(NC1CCCC1)c1cc(Cl)ccc1[N+](=O)[O-]", "values": [{"measurement": "cell number change", "result": 4.98, "unit": "%"}, {"measurement": "AC50", "setting": "[2]", "result": "5.17 µM [rising, full curve, poor fit]"}]}
{"smiles": "CCCCn1c(N)c(N(CC(C)C)C(=O)c2cc(-c3ccco3)nc3ccccc23)c(=O)[nH]c1=O", "values": [{"measurement": "AC50", "setting": "[1]", "result": "2.91 µM [rising, single point]"}, {"measurement": "AC50", "setting": "[2]", "result": "3.66 µM [rising, partial curve]"}]}
{"smiles": "COC(=O)CCN1CCN(S(=O)(=O)c2ccc3c(c2)OCCO3)CC1", "values": [{"measurement": "cell number change", "result": 11.4, "unit": "%"}]}
{"smiles": "CCc1ccc(S(=O)(=O)c2cn(C)c3cc(OC)c(OC)cc3c2=O)cc1", "values": [{"measurement": "cell number change", "result": 18.9, "unit": "%"}, {"measurement": "AC50", "setting": "[1]", "result": "4.11 µM [rising, single point]"}]}
{"smiles": "COc1cccc(/C=C/C(=O)NCc2cn3cc(Cl)ccc3n2)c1OC", "values": [{"measurement": "AC50", "setting": "[1]", "result": "3.66 µM [rising, single point]"}, {"measurement": "AC50", "setting": "[2]", "result": "4.61 µM [rising, partial curve, poor fit]"}]}
{"smiles": "CN(C/C=C/c1ccccc1)C1CCCCC1", "values": [{"measurement": "cell number change", "result": -7.18, "unit": "%"}, {"measurement": "AC50", "setting": "[2]", "result": "29.1 µM [rising, single point]"}]}
{"smiles": "CCCN(CCC)S(=O)(=O)c1ccc(C(=O)O)cc1", "values": [{"measurement": "cell number change", "result": 16.4, "unit": "%"}, {"measurement": "AC50", "setting": "[2]", "result": "29.1 µM [rising, single point]"}]}
{"smiles": "COc1cc(OC)cc(-c2c(-c3cccs3)c3cc(Br)ccc3n2C)c1", "values": [{"measurement": "cell number change", "result": -8.02, "unit": "%"}]}
{"smiles": "CCOc1ccccc1N1CCN(Cc2cccc(OC)c2OC)CC1", "values": [{"measurement": "cell number change", "result": -9.81, "unit": "%"}, {"measurement": "AC50", "setting": "[2]", "result": "16.4 µM [falling, partial curve]"}]}
{"smiles": "O=C(Nc1ccccc1N1CCOCC1)c1csc2c1CCCC2", "values": [{"measurement": "cell number change", "result": 19.6, "unit": "%"}, {"measurement": "AC50", "setting": "[2]", "result": "1.84 µM [rising, full curve, poor fit]"}]}
{"smiles": "CC/C(=N\\NC(=O)CNC(=O)/C=C/c1ccc(OC)cc1)c1ccccc1", "values": [{"measurement": "AC50", "setting": "[2]", "result": "29.1 µM [rising, single point]"}]}
{"smiles": "CC(C)n1cnnc1SCC(=O)NC(=O)c1ccccc1", "values": [{"measurement": "cell number change", "result": -39.7, "unit": "%"}, {"measurement": "AC50", "setting": "[1]", "result": "29.1 µM [falling, single point]"}, {"measurement": "AC50", "setting": "[2]", "result": "20.6 µM [falling, single point]"}]}
{"smiles": "NC(=O)C1CCN(C(=O)c2ccc3c(=O)n(Cc4ccco4)c(SCC(=O)c4ccc(F)cc4)nc3c2)CC1", "values": [{"measurement": "cell number change", "result": -55.4, "unit": "%"}, {"measurement": "AC50", "setting": "[1]", "result": "11.6 µM [falling, partial curve, poor fit]"}, {"measurement": "AC50", "setting": "[2]", "result": "29.1 µM [falling, single point]"}]}
